We go through one molecule from patent US9095598B2, “Stilbenoid derivatives and their uses” (The Board of Trustees of the University of Arkansas, priority 2010, dated 2015).

Chains of the proteins cited; added tags and fusions are not shown.
UniProt P47746, whole entry: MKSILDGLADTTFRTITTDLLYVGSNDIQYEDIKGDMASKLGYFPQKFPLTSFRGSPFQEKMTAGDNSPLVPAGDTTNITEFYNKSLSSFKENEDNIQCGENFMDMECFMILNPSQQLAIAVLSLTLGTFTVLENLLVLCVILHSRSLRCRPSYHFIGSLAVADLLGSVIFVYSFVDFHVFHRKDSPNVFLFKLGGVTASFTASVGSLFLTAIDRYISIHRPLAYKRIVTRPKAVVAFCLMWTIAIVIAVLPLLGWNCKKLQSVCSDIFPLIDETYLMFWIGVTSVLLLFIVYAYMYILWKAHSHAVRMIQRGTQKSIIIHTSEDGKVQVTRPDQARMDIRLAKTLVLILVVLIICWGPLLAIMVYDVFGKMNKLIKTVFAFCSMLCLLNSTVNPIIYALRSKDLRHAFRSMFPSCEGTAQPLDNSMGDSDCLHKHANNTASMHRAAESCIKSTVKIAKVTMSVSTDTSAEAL

This assay has as its target T1, CB1 receptors (Mus musculus, UniProt P47746).
T1 construct: from tissue; host or cells: mouse brain membranes
The assay is classed as biochemical. The note with it: 1 μM, 30 min at 30° C.

As to `Cc1c(C(=O)NN2CCCCC2)nn(-c2ccc(Cl)cc2Cl)c1-c1ccc(I)cc1` [AM251, reference compound], the “effect on G-protein activity, in words” value was “inhibited”.
